Reference: patent US7880002B2, “Substituted piperazinyl-pyrrolidine compounds useful as chemokine receptor antagonists” (Millennium Pharmaceuticals, Inc., priority 2004, dated 2011)
Some results were stated once for a whole list of compounds, not compound by compound.

Molecular target: T1, CCR1 (Homo sapiens, UniProt P32246)
T1 construct: a monocytic derived cell line that endogenously expresses CCR1; host or cells: THP-1 cells
T1 sequence (P32246 1-355): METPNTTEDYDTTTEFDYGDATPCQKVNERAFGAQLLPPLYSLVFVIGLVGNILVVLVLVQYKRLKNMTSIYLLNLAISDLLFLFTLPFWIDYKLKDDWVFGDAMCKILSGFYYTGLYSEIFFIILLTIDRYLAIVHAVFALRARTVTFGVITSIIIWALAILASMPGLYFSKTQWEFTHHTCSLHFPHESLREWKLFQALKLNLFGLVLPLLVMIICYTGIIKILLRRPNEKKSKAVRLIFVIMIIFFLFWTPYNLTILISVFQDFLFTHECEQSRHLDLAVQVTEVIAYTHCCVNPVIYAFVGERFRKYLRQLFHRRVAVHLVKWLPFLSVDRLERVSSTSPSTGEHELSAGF
Assay: CCR1 inhibition (THP-1 FLIPR assay / THP-1 whole cell radioligand binding assay; the patent does not say which gave the values)
Type: cell-based
Details: threshold list, less than 1 uM; compounds of Table 1; read-out: inhibitory activity
Description: The primary screening assay is a FLIPR® (Fluorometric Imaging Plate Reader, available from Molecular Devices Corporation, Sunnyvale, Calif.) assay using THP-1 cells (ATCC, Catalog No. TIB 202), a monocytic derived cell line that endogenously expresses CCR1.
The cells were resuspended at 1×10^6 cells/ml in dye loading media (growth media (RPMI+10% FBS (Fetal Bovine serum)+5.5×10^−5M 2-mercaptoethanol)+10 mM HEPES (N-2-hydroxyethylpiperazine-N′-2-ethane-sulfonic acid)+2.5 mM probenecid+fluo-3 (1:250)). The cells were incubated for 1 hour at 37° C. and then washed in FLIPR wash buffer (100 mL 10× HBSS (Hanks Buffered Saline Solution) (w/Ca++/Mg++)+20 mL 1M HEPES+1 g BSA+10 mL 250 mM probenecid+water (to make 1 L)) and plated at 50,000 cells/well in black/clear 384 well plates. The plates were transferred to FLIPR where the ability of different concentrations of compounds to inhibit RANTES induced calcium flux was assessed. Inhibition of the CCR1 response was reflected by a decrease of the fluorescence signal relative to the positive controls (RANTES alone).
THP-1 Whole Cell Radioligand Binding Assay
The cells were washed with PBS (phosphate buffered saline) and resuspended in binding buffer (10 mM HEPES pH 7.2, 1× HBSS (w/Ca^2+, Mg^2+) 0.5% BSA, 0.02% Na-azide) at 4×10^6 cells/ml (for 200, 000 cells/well). Cells were incubated with 0.1 to 0.2 nM [^125I]-labeled MIP-1α with or without unlabeled competitor (MIP-1α) or various concentrations of compounds for 60 minutes at room temperature. The assay was terminated by vacuum filtration through glass fiber filters (GF/B, Packard) which were presoaked in 0.3% polyethyleneimine. The filters were washed with wash buffer (10 mM HEPES, pH 7.2, 1 mM CaCl2, 5 mM MgCl2 0.5M NaCl), dried and the amount of bound radioactivity was determined by scintillation counting.

| SMILES | IC50 [nM] |
| --- | --- |
| O=[N+]([O-])c1cc(Cl)ccc1N1C[C@@H](O)[C@H](N2CCN(Cc3ccc(Cl)cc3)CC2)C1 (stereo in doubt) [Example 46, 4-[4-(4-chlorobenzyl)piperazin-1-yl]-1-(4-chloro-2-nitrophenyl)pyrrolidin-3-ol] | < 1000 |
| O=C(c1ccc(Cl)cc1)N1CCN([C@H]2CN(c3ccc(C(F)(F)F)cn3)C[C@@H]2O)CC1 (stereo in doubt) [Example 48, 4-[4-(4-chlorobenzoyl)piperazin-1-yl]-1-[5-(trifluoromethyl)pyridin-2-yl]pyrrolidin-3-ol] | < 1000 |
| O=C(c1ccc(Cl)cc1)N1CCN([C@@H]2CN(c3ccc(F)c4ccccc34)C[C@H]2O)CC1 (stereo in doubt) [Example 49, 4-[4-(4-chlorobenzoyl)piperazin-1-yl]-1-(4-fluoro-1-naphthyl)pyrrolidin-3-ol] | < 1000 |
| O=C(c1ccc(Cl)cc1)N1CCN([C@@H]2CN(c3cc(-c4ccccc4)ncn3)C[C@H]2O)CC1 (stereo in doubt) [Example 51, 4-[4-(4-chlorobenzoyl)piperazin-1-yl]-1-(6-phenylpyrimidin-4-yl)pyrrolidin-3-ol] | < 1000 |
| O[C@@H]1CN(c2cc(-c3ccccc3)ncn2)C[C@H]1N1CCN(Cc2ccc(Cl)cc2)CC1 (stereo in doubt) [Example 52, 4-[4-(4-chlorobenzyl)piperazin-1-yl]-1-(6-phenylpyrimidin-4-yl)pyrrolidin-3-ol] | < 1000 |
| O[C@@H]1CN(c2ccc(F)c3ccccc23)C[C@H]1N1CCN(Cc2ccc(Cl)cc2)CC1 (stereo in doubt) [Example 53, 4-[4-(4-chlorobenzyl)piperazin-1-yl]-1-(4-fluoro-1-naphthyl)pyrrolidin-3-ol] | < 1000 |
| O[C@@H]1CN(c2cccc(Cl)c2)C[C@H]1N1CCN(Cc2ccc(Cl)cc2)CC1 (stereo in doubt) [Example 58, 4-[4-(4-chlorobenzyl)piperazin-1-yl]-1-(3-chlorophenyl)pyrrolidin-3-ol] | < 1000 |
| CC(=O)O[C@@H]1CN(c2ccc(Cl)cc2NC(N)=O)C[C@H]1N1CCN(Cc2ccc(Cl)cc2)CC1 (stereo in doubt) [Example 59, 1-{2-[(aminocarbonyl)amino]-4-chlorophenyl}-4-[4-(4-chlorobenzyl)piperazin-1-yl]pyrrolidin-3-yl acetate] | < 1000 |
| O[C@H]1CN(c2ncnc3ccc(Cl)cc23)C[C@@H]1N1CCC(Oc2ccc(Cl)cc2)CC1 (stereo in doubt) [Example 65, 4-[4-(4-chlorophenoxy)piperidin-1-yl]-1-(6-chloroquinazolin-4-yl)pyrrolidin-3-ol] | < 1000 |
| NC(=O)Nc1cc(Cl)ccc1N1C[C@@H](O)[C@H](N2CCN(Cc3ccc(Cl)cc3)CC2)C1 (stereo in doubt) [Example 66, N-(5-chloro-2-{3-[4-(4-chlorobenzyl)piperazin-1-yl]-4-hydroxypyrrolidin-1-yl}phenyl)urea] | < 1000 |
| O=C(c1ccc(Cl)cc1)N1CCN([C@@H]2CN(c3cc(-c4ccc(Cl)cc4)ncn3)C[C@H]2O)CC1 (stereo in doubt) [Example 73, 4-[4-(4-chlorobenzoyl)piperazin-1-yl]-1-[6-(4-chlorophenyl)pyrimidin-4-yl]pyrrolidin-3-ol] | < 1000 |
| O=C(c1ccc(Cl)cc1)N1CCN([C@@H]2CN(c3ccc(Cl)c(C(F)(F)F)c3)C[C@H]2O)CC1 (stereo in doubt) [Example 75, 4-[4-(4-chlorobenzoyl)piperazin-1-yl]-1-[4-chloro-3-(trifluoromethyl)phenyl]pyrrolidin-3-ol] | < 1000 |
| O[C@@H]1CN(c2ccc(Cl)c(C(F)(F)F)c2)C[C@H]1N1CCN(Cc2ccc(Cl)cc2)CC1 (stereo in doubt) [Example 76, 4-[4-(4-chlorobenzyl)piperazin-1-yl]-1-[4-chloro-3-(trifluoromethyl)phenyl]pyrrolidin-3-ol] | < 1000 |
| O[C@H]1CN(c2ccnc3cc(C(F)(F)F)ccc23)C[C@@H]1N1CCC(Oc2ccc(Cl)cc2)CC1 (stereo in doubt) [Example 77, 4-[4-(4-chlorophenoxy)piperidin-1-yl]-1-[7-(trifluoromethyl)quinolin-4-yl]pyrrolidin-3-ol] | < 1000 |
| O[C@H]1CN(c2nccc(C(F)(F)F)n2)C[C@@H]1N1CCC(Oc2ccc(Cl)cc2)CC1 (stereo in doubt) [Example 78, 4-[4-(4-chlorophenoxy)piperidin-1-yl]-1-[4-(trifluoromethyl)pyrimidin-2-yl]pyrrolidin-3-ol] | < 1000 |
| O[C@H]1CN(c2ncnc3cc(Cl)ccc23)C[C@@H]1N1CCC(Oc2ccc(Cl)cc2)CC1 (stereo in doubt) [Example 80, 4-[4-(4-chlorophenoxy)piperidin-1-yl]-1-(7-chloroquinazolin-4-yl)pyrrolidin-3-ol] | < 1000 |
| O=C(c1ccc(Cl)cc1)N1CCN([C@@H]2CN(c3ncnc4ccc(Cl)cc34)C[C@H]2O)CC1 (stereo in doubt) [Example 81, 4-[4-(4-chlorobenzoyl)piperazin-1-yl]-1-(6-chloroquinazolin-4-yl)pyrrolidin-3-ol] | < 1000 |
| Cc1cc(N2C[C@H](O)[C@@H](N3CCN(Cc4ccc(Cl)cc4)CC3)C2)nc(-c2ccccc2)n1 (stereo in doubt) [Example 82, 4-[4-(4-chlorobenzyl)piperazin-1-yl]-1-(6-methyl-2-phenylpyrimidin-4-yl)pyrrolidin-3-ol] | < 1000 |
| O=C(c1ccc(Cl)cc1)N1CCN([C@@H]2CN(c3ncnc4ccccc34)C[C@H]2O)CC1 (stereo in doubt) [Example 84, 4-[4-(4-chlorobenzoyl)piperazin-1-yl]-1-quinazolin-4-ylpyrrolidin-3-ol] | < 1000 |
| O=C(c1ccc(Cl)cc1)N1CCN([C@H]2CN(c3ccc4cccc(Cl)c4n3)C[C@@H]2O)CC1 (stereo in doubt) [Example 85, 4-[4-(4-chlorobenzoyl)piperazin-1-yl]-1-(8-chloroquinolin-2-yl)pyrrolidin-3-ol] | < 1000 |
| O=C(c1ccc(Cl)cc1)N1CCN([C@@H]2CN(c3ncnc4cc(F)ccc34)C[C@H]2O)CC1 (stereo in doubt) [Example 86, 4-[4-(4-chlorobenzoyl)piperazin-1-yl]-1-(7-fluoroquinazolin-4-yl)pyrrolidin-3-ol] | < 1000 |
| O[C@H]1CN(c2ncnc3cc(Cl)ccc23)C[C@@H]1N1CCN(Cc2ccc(Cl)cc2)CC1 (stereo in doubt) [Example 87, 4-[4-(4-chlorobenzyl)piperazin-1-yl]-1-(7-chloroquinazolin-4-yl)pyrrolidin-3-ol] | < 1000 |
| COC(=O)c1cc(C)nc(N2C[C@@H](O)[C@H](N3CCN(C(=O)c4ccc(Cl)cc4)CC3)C2)n1 (stereo in doubt) [Example 88, methyl 2-{3-[4-(4-chlorobenzoyl)piperazin-1-yl]-4-hydroxypyrrolidin-1-yl}-6-methylpyrimidine-4-carboxylate] | < 1000 |
| O=C(c1ccc(Cl)cc1)N1CCN([C@@H]2CN(c3ncnc4cc(C(F)(F)F)ccc34)C[C@H]2O)CC1 (stereo in doubt) [Example 93, 4-[4-(4-chlorobenzoyl)piperazin-1-yl]-1-[7-(trifluoromethyl)quinazolin-4-yl]pyrrolidin-3-ol] | < 1000 |
| O=C(c1ccc(Cl)cc1)N1CCN([C@@H]2CN(c3nc(C(F)(F)F)nc4ccccc34)C[C@H]2O)CC1 (stereo in doubt) [Example 94, 4-[4-(4-chlorobenzoyl)piperazin-1-yl]-1-[2-(trifluoromethyl)quinazolin-4-yl]pyrrolidin-3-ol] | < 1000 |
| O[C@H]1CN(c2nc(C(F)(F)F)nc3ccccc23)C[C@@H]1N1CCN(Cc2ccc(Cl)cc2)CC1 (stereo in doubt) [Example 95, 4-[4-(4-chlorobenzyl)piperazin-1-yl]-1-[2-(trifluoromethyl)quinazolin-4-yl]pyrrolidin-3-ol] | < 1000 |
| O=C(c1ccc(Cl)cc1)N1CCN([C@H]2CN(c3cnc4cc(Cl)ccc4n3)C[C@@H]2O)CC1 (stereo in doubt) [Example 96, 4-[4-(4-chlorobenzoyl)piperazin-1-yl]-1-(6-chloroquinoxalin-2-yl)pyrrolidin-3-ol] | < 1000 |
